Measured values: PubChem BioAssay AID248 (DTP/NCI, 2004)
The list is a part of this screen's results and no random one: it gathers tests that were run many times, whatever their T/C, doses with no T/C, and many T/C values between a quarter and a half above the control. Other doses and runs of a compound stand elsewhere. T/C gives the treated animals as a percentage of the vehicle group. Some doses have a count of surviving animals in place of a T/C: the source holds a T/C of zero for them, seemingly a mark for toxic or unscored doses. Some survivor counts are full or nearly so, which does not show that the dose was tolerated: survival well below the control is almost never listed, so the zero probably covers shortened survival too. Survivors were counted at the toxicity check, usually on the fifth day, unless a day is given; later deaths do not show. Schedules are NCI's codes, read here as Q, the interval in days (D) or hours (H), X, the number of doses. For survival time, the PubChem record calls one and a half times the control and up active, and a quarter to a half above the control has no call in these data; cut-offs in other NCI protocols can differ.

System: L1210 leukemia ip in BDF1 mice, survival T/C
Assay: NCI In Vivo Anticancer Drug Screen. Data for tumor model L1210 Leukemia (intraperitoneal) in B6D2F1 (BDF1) mice
Conditions: T/C endpoint: mean survival time, higher T/C = longer survival
[1] = dose: 200.0 mg/kg/injection, schedule: Q01DX009 (ip), vehicle: Klucel (hydroxypropylcellulose) (HPC)
[2] = dose: 200.0 mg/kg/injection, schedule: Q01DX001 (ip), vehicle: saline
[3] = dose: 400.0 mg/kg/injection, schedule: Q01DX001 (ip), vehicle: saline
[4] = dose: 50.0 mg/kg/injection, schedule: Q01DX009 (ip), vehicle: saline

COC1CCC(NC(=O)N(CCCl)N=O)CC1 (stereo not given)
T/C (dose: 12.0 mg/kg/injection, schedule: Q01DX001 (ip), vehicle: saline with Tween-80, evaluated on day 30): 147 % of control
T/C (dose: 12.0 mg/kg/injection, schedule: Q01DX001 (ip), vehicle: saline with Tween-80, evaluated on day 45): 131 % of control
survivor count (dose: 80.0 mg/kg/injection, schedule: Q01DX001 (ip), vehicle: saline with Tween-80): 10 of 10
T/C (dose: 90.0 mg/kg/injection, schedule: Q01DX001 (ip), vehicle: saline with Tween-80): 145 % of control
survivor count (dose: 120.0 mg/kg/injection, schedule: Q01DX001 (ip), vehicle: saline with Tween-80): 9 of 10
survivor count (dose: 135.0 mg/kg/injection, schedule: Q01DX001 (ip), vehicle: saline with Tween-80): 8 of 10
survivor count (dose: 178.0 mg/kg/injection, schedule: Q01DX001 (ip), vehicle: saline with Tween-80): 6 of 10
survivor count (dose: 200.0 mg/kg/injection, schedule: Q01DX001 (ip), vehicle: saline with Tween-80): 8 of 10
survivor count (dose: 266.0 mg/kg/injection, schedule: Q01DX001 (ip), vehicle: saline with Tween-80): 7 of 10
survivor count (dose: 300.0 mg/kg/injection, schedule: Q01DX001 (ip), vehicle: saline with Tween-80): 3 of 10
survivor count (dose: 400.0 mg/kg/injection, schedule: Q01DX001 (ip), vehicle: saline with Tween-80): 0 of 10

CC1(C)C2CCC(CCOC(=O)COc3ccc(Cl)cc3Cl)C1C2 (stereo not given)
survivor count (dose: 400.0 mg/kg/injection, schedule: Q01DX009 (ip), vehicle: saline with Tween-80): 4 of 6

CC(=O)C(=Cc1ccc(Cl)c(Cl)c1)C(C)=O
survivor count [1]: 2 of 6
survivor count (dose: 400.0 mg/kg/injection, schedule: Q01DX009 (ip), vehicle: Klucel (hydroxypropylcellulose) (HPC)): 0 of 6

CC(=O)OCC(OC(C)=O)C1(O)CCC2C3CCC4=CC(=O)CCC4(C)C3CCC21C (stereo not given)
survivor count (dose: 50.0 mg/kg/injection, schedule: Q01DX009 (ip), vehicle: Klucel (hydroxypropylcellulose) (HPC)): 3 of 3
survivor count [1]: 3 of 3

Cn1cnc([N+](=O)[O-])c1[Se]c1nc(N)nc2c1ncn2C1OC(CO)C(O)C1O (stereo not given)
survivor count (dose: 100.0 mg/kg/injection, schedule: Q01DX005 (ip), vehicle: saline): 3 of 6
survivor count (dose: 200.0 mg/kg/injection, schedule: Q01DX005 (ip), vehicle: saline): 0 of 6

O=C(OCc1ccccc1)C1CCCN1Cc1ccc2c(c1)OCO2 (stereo not given)
survivor count [2]: 4 of 4

OC1CSC1
survivor count [3]: 2 of 4

S=C([SH2+])[SH2+].S=C([SH2+])[SH2+].[Pt+2].c1ccc(C[P+](c2ccccc2)(c2ccccc2)c2ccccc2)cc1
survivor count [4]: 0 of 6
survivor count (dose: 100.0 mg/kg/injection, schedule: Q01DX001 (ip), vehicle: saline): 1 of 6
survivor count [2]: 0 of 6
survivor count [3]: 0 of 6

COc1cc(C2NC(=S)NC2=S)ccc1O (stereo not given)
survivor count (dose: 100.0 mg/kg/injection, schedule: Q01DX009 (ip), vehicle: saline with Tween-80): 6 of 6
survivor count (dose: 200.0 mg/kg/injection, schedule: Q04DX003 (ip), vehicle: saline with Tween-80): 6 of 6
survivor count (dose: 400.0 mg/kg/injection, schedule: Q04DX003 (ip), vehicle: saline with Tween-80): 3 of 6

O=[N+]([O-])c1ccc(/C=N/c2oc(-c3ccc([N+](=O)[O-])cc3)nc2SCc2ccccc2)cc1
survivor count (dose: 400.0 mg/kg/injection, schedule: Q04DX002 (ip), vehicle: Klucel (hydroxypropylcellulose) (HPC)): 3 of 3

CN(C)C1=C(Cl)C(=O)c2ccccc2C1=O
survivor count [2]: 2 of 4
survivor count [3]: 0 of 4

CC(=O)SCCNCCNC1CC2CCC1C2 (stereo not given)
survivor count (dose: 20.0 mg/kg/injection, schedule: Q04DX003 (ip), vehicle: saline): 6 of 6
survivor count (dose: 35.0 mg/kg/injection, schedule: Q01DX009 (ip), vehicle: saline): 1 of 6
survivor count (dose: 40.0 mg/kg/injection, schedule: Q04DX003 (ip), vehicle: saline): 1 of 6
survivor count [4]: 0 of 6

O=C(OC1CC2CC1C1C=CCC21)c1ccc([N+](=O)[O-])cc1 (stereo not given)
T/C (dose: 100.0 mg/kg/injection, schedule: Q01DX001 (ip), vehicle: carboxymethylcellulose (CMC)): 125 % of control
